Results on two sequences are retold here after article PMC5732184, “Arabidopsis Basic Helix-Loop-Helix 34 (bHLH34) Is Involved in Glucose Signaling through Binding to a GAGA Cis-Element”.

For at least one entry, the source does not settle the construct or the ends of the probe. No signal at the amounts used counts as a negative. For some assays here: Protein sequences can lack the tags named with them.

Data set [1] concerns the target T1, His-bHLH34 (Arabidopsis thaliana) (UniProt Q9LTC7).
T1 sequence (looked up): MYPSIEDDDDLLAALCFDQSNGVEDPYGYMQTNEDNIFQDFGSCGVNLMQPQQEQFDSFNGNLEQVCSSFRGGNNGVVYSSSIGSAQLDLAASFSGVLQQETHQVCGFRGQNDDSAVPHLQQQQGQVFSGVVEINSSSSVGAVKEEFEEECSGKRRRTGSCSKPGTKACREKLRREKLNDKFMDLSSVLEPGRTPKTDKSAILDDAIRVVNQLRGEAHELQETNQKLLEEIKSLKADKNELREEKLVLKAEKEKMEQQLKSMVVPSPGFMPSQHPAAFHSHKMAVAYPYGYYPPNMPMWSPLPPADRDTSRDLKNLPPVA
Briefly: EMSA. The settings on record: 10 mM Tris-HCl pH 7.5, 50 mM KCl, 1 mM EDTA, 1 mM DTT, 2.5% glycerol, 1 ug poly(dI-dC), 100 ng protein, 0.3 pmol DNA in 20 uL; 25 C 20 min; 5% native PAGE in TBE at 4 C; recombinant protein; residues 1-320; protein details: His tag (pET300/NT-DEST); label: 32P. For orientation: In EMSA bound probe runs differently from free probe, usually more slowly.

For the next data set, the system named is MBP. Briefly: EMSA. Particulars: 10 mM Tris-HCl pH 7.5, 50 mM KCl, 1 mM EDTA, 1 mM DTT, 2.5% glycerol, 1 ug poly(dI-dC), 100 ng protein, 0.3 pmol DNA in 20 uL; 25 C 20 min; 5% native PAGE in TBE at 4 C; recombinant protein; label: 32P.

As to AGAATTTTCGGA / GCCGAAAATTCT [DBE1 m5], in data set [1], the binding result is reported as “no binding”.

In the case of AGAAGAGACGGC (double strand) [DBE1], the binding result with MBP is “no binding”.
